Screen size: about 350,000 compounds; about 180 (0.051%) were called active. This list was built around the results that the source calls inconclusive (neither active nor inactive); the mix of calls is not that of the screen.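 How the source made its calls: active means mean inhibition across replicates of 30% or more, whatever share of single replicates reach that level; inconclusive means mean inhibition below 30% while every single replicate reaches 30%; inactive means the rest.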
biological target: Protein disulfide-isomerase (Homo sapiens) (UniProt P07237); experiment: blockers of PDI-driven insulin aggregation – biochemical, turbidity, single point, plate reader, primary screen (AID 588391); conditions: A650, 90 min, at 10 µM, active compounds read high;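 further: absorbance from insulin aggregation driven by PDI reduction with DTT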

The chains behind the UniProt entries cited, without tags or fusion partners.
UniProt P07237, whole entry, looked up: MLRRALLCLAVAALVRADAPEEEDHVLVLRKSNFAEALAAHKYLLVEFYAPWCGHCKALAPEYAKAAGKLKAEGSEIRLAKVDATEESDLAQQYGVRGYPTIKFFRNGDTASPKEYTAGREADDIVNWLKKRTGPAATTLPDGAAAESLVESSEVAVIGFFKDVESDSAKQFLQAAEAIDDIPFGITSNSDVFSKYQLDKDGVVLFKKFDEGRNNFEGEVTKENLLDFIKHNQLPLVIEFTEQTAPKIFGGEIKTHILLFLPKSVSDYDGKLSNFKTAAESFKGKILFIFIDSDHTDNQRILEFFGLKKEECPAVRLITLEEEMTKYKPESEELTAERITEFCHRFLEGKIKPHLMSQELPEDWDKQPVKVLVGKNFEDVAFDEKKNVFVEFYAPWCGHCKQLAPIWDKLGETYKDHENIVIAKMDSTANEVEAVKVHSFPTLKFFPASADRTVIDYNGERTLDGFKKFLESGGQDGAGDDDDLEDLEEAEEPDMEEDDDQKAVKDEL

Structure (SMILES) | inhibition
S=C(NCCc1ccccc1)Nc1ccccn1 | inconclusive: 30.3%
Cc1ccc(NC(=S)Nc2ccc3cn[nH]c3c2)c(C)c1 | inactive: 4.11%
O=C(NCCN1CCOCC1)c1cccnc1SCc1ccccc1Cl | inconclusive: 55.8%
O=C(NCc1ccccn1)Nc1cccc(Cl)c1 | inconclusive: 32.8%
Cc1ccc(CN(c2ccc(C(=O)Nc3ccc4c(c3)OCO4)cc2)S(C)(=O)=O)cc1 | inconclusive: 30.3%
CC1(C)CC(=O)C2=C(C1)OC1=C(C(=O)CC(C)(C)C1)C2c1ccc(O)cc1O | active: 77.2%
CC(C(=O)O)c1cccc(C(=O)c2ccccc2)c1 (configuration not stated) | inactive: -4.34%
Cc1ccc(O)c(NC(=O)CSc2n[nH]c(-c3ccccc3)n2)c1 | inconclusive: 33.3%
O=C(CSc1nc2nn(-c3ccccc3)c(=O)c-2c2n1CCCCC2)c1ccc(O)c(O)c1 | active: 53.1%
CC1CCc2sc(C(=O)N/N=C/C3CCCCC3)cc2C1 (configuration not stated) | inconclusive: 40.2%
Cn1ccnc1SCC(=O)NC1CC1 | inconclusive: 41.4%
O=C(/C=C/c1ccccc1)Nc1scc(-c2ccccc2)c1C(=O)O | inconclusive: 31.9%
O=C1C[C@H](c2ccc(O)cc2)Oc2cc(O[C@@H]3O[C@H](CO)[C@@H](O)[C@H](O)[C@H]3O)cc(O[C@@H]3O[C@H](CO)[C@@H](O)[C@H](O)[C@H]3O)c21 | active: 39%
COc1ccc2c(CC(=O)OCC(=O)N(C)c3c(N)n(Cc4ccccc4)c(=O)[nH]c3=O)coc2c1 | inconclusive: 36.5%
O=C(c1c(O)cc(O)cc1O)C1c2c(cc(O)c3c2O[C@H](c2ccc(O)cc2)[C@@H](O)C3)OC1c1ccc(O)cc1 (some centres not stated) | active: 53.1%
CN1CC(c2ccc(Cl)c(Cl)c2)[C@@]2(COc3ccccc3C2=O)[C@@]12C(=O)Nc1ccccc12 (some centres not stated) | inactive: -2.97%
COc1ccc(OCCN2CCC(C(=O)NC(c3ccsc3)c3ccccc3C)CC2)cc1 (configuration not stated) | inconclusive: 108%
COc1ccc(CCNC(=O)c2cc(S(=O)(=O)N(C)C)ccc2N2CCCC2)cc1 | inconclusive: 42.5%
COCCN(CC(=O)Nc1ccccc1C(F)(F)F)C(=O)/C=C/c1cc(Cl)c2c(c1)OCCO2 | inconclusive: 32.2%
COCc1[nH][nH]c(=O)c1C=Nc1ccc(F)cc1F | inconclusive: 32.3%
COc1ccc(C[C@@H]2OC3(C=CC(=O)C=C3)O[C@H]2Cc2ccc(OC)cc2)cc1 | active: 66.5%
CSc1cccc(CN2CCN(Cc3ccccc3)C(CCO)C2)c1 (configuration not stated) | inactive: 10.3%
O=C(O)c1cc(O)c2c(c1)[C@@H]([C@H]1c3cc(C(=O)O)cc(O)c3C(=O)c3c(O[C@@H]4O[C@H](CO)[C@@H](O)[C@H](O)[C@H]4O)cccc31)c1cccc(OC3O[C@H](CO)[C@@H](O)[C@H](O)[C@H]3O)c1C2=O (some centres not stated) | inconclusive: 34.9%
CN(C)CCCN(C(=O)c1ccc(S(=O)(=O)N2CCc3ccccc32)cc1)c1nc2c(Cl)cccc2s1 | inconclusive: 39.4%
CC1CC(=O)N(c2ccc(NCc3ccc(Cl)cc3)c([N+](=O)[O-])c2)C1=O (configuration not stated) | inconclusive: 41.7%
O=C(CN1CCN(c2ccc(O)cc2)CC1)Nc1cc(S(=O)(=O)N2CCOCC2)ccc1Cl | inconclusive: 35.1%

Reformatted as tab-separated lines: part of the list above
Structure (SMILES)	inhibition
Cc1ccc(NC(=S)Nc2ccc3cn[nH]c3c2)c(C)c1	inactive: 4.11%
COCCN(CC(=O)Nc1ccccc1C(F)(F)F)C(=O)/C=C/c1cc(Cl)c2c(c1)OCCO2	inconclusive: 32.2%

Next compounds follow:

Structure (SMILES) | inhibition
Cc1ccc(C)c(NS(=O)(=O)c2c(C)nn(C)c2C)c1 | active: 37.5%
Clc1ccc2nc(CSc3nnc4ccccn34)cn2c1 | inconclusive: 33.6%
Cc1nnc(NC(=O)CSc2ccc3nnc(-c4ccccn4)n3n2)s1 | inactive: -3.43%
CCCc1cc(=O)[nH]c(SCCOc2ccc(OCC)cc2)n1 | inconclusive: 30.7%
COc1ccc(C(C)=O)cc1CN1C(=O)NC2(CCCCCCC2)C1=O | inactive: -1.45%
COc1cccc(/C=C2\CCCCC2=O)c1 | inconclusive: 59.5%
CCC(C)NC(=O)CCn1c(-c2ccc(F)cc2)cc(C(C)=O)c1C (configuration not stated) | inactive: -9.87%
N#Cc1c(N2CCCC2)nc(N)c2c(N)nc(N3CCCC3)cc12 | inconclusive: 54.8%
COc1ccc(Cl)cc1NC(=O)COC(=O)C1CC1 | inconclusive: 39.3%
CC(=O)c1cnn(-c2cc(Oc3cccc(C)c3)ncn2)c1C | inactive: -2.01%
CC(=O)c1ccc(N2CCN(C(=O)c3ccc4[nH]c(C)c(C)c4c3)CC2)cc1 | inconclusive: 36.3%
N#C/C(=C\c1ccccc1OCc1ccc(C(=O)O)cc1)C(=O)Nc1ccc(O)cc1 | active: 50.9%
Cc1noc(C)c1-c1ccc(C(=O)NCc2ccc(Cl)cc2)c2occc12 | inconclusive: 96.2%
O=C(CNC(=O)c1n[nH]c2ccccc12)Nc1cc(Cl)ccc1Cl | inconclusive: 31.8%
N#Cc1ccc(C(=O)N(Cc2ccco2)c2c(N)n(Cc3ccccc3)c(=O)[nH]c2=O)cc1 | active: 33.2%
CNC(=O)C1CCC(=O)N1Cc1ccccc1Cl (configuration not stated) | inactive: -2.54%
CCOC(=O)C1(Cc2ccc(O)cc2)NC(c2ccccc2F)C2C(=O)N(C)C(=O)C21 (configuration not stated) | inconclusive: 36.3%
COC(C[C@H](O)C[C@@H](O)[C@H](C)OCc1ccccc1)OC | inactive: -3.95%
O=C1NC(Cc2ccc(O)cc2)c2nc3ccc(Br)cc3c(=O)n2-c2ncccc21 (configuration not stated) | inconclusive: 34.3%
CC(=O)c1ccc(OCc2cc(C(=O)N3CCCCC3c3cccnc3)no2)cc1 (configuration not stated) | active: 33.5%
COc1cc(-c2oc3cc(O)cc(O)c3c(=O)c2O[C@@H]2O[C@H](COC3O[C@@H](C)[C@H](O)[C@@H](O)[C@H]3O)[C@@H](O)[C@H](O)[C@H]2O)ccc1O (some centres not stated) | active: 55.6%
O=C(NC1CCCCC1)C1CCN(S(=O)(=O)c2cccs2)CC1 | inconclusive: 36.5%
CCOC(=O)c1c(CN2CCN(CCO)CC2)n(-c2ccccc2)c2cc(Br)c(O)cc12 | active: 58.3%
Cc1ccc(NC(=O)CSC(C)C(=O)OCc2cc(=O)oc3cc(O)ccc23)cc1 (configuration not stated) | inconclusive: 30.3%
O=C(/C=C/c1ccc(O)cc1)c1ccc(O)cc1O | active: 41%
COc1ccccc1Nc1nc(N)nc(CN2CCCCCC2)n1 | inactive: 0.48%

A different layout for part of the listing above:
Structure (SMILES)	inhibition
O=C(NC1CCCCC1)C1CCN(S(=O)(=O)c2cccs2)CC1	inconclusive: 36.5%
CCOC(=O)c1c(CN2CCN(CCO)CC2)n(-c2ccccc2)c2cc(Br)c(O)cc12	active: 58.3%
